The results in this text go back to paper PMC5630600.

Protein sequences, listed by entry. Tags and fused reporters are not part of them.
UniProt P27695: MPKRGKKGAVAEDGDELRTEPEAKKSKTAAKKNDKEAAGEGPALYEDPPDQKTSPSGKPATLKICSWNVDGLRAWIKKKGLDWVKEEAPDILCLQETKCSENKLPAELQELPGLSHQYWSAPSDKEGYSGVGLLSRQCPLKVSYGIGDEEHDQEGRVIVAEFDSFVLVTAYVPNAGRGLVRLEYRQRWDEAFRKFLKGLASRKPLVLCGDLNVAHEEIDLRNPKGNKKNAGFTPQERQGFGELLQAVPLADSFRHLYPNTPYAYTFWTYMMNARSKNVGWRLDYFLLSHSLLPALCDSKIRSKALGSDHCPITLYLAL
UniProt P17844: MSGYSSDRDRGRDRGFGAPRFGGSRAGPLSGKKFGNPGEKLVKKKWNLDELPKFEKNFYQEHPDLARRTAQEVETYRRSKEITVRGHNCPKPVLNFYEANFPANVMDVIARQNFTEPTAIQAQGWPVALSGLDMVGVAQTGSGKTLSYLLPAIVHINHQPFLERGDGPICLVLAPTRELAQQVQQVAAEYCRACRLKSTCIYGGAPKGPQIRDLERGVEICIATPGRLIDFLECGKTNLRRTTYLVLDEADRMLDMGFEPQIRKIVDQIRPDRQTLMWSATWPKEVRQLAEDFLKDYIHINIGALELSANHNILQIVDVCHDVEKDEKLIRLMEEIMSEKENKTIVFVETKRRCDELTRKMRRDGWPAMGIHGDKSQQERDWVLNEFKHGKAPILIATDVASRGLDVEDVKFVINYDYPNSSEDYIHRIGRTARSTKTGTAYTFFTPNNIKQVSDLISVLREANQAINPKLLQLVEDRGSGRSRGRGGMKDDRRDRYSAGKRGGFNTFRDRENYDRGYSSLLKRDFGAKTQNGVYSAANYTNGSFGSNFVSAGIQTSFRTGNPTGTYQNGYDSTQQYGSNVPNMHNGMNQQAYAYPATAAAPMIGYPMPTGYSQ
UniProt P06748: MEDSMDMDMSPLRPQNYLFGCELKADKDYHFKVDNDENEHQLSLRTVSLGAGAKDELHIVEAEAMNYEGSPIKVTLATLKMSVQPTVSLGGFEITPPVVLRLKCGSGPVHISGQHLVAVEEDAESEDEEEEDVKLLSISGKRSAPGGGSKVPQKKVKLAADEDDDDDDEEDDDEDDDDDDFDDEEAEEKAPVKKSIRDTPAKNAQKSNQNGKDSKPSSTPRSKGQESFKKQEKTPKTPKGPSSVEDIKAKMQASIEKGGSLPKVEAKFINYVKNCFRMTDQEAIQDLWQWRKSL

These are yes or no findings as the source states them, for the method shown. Binding seen in cells or lysates may run through a third protein. Some results given as binding are weak or reduced against the parent protein; the word gives no strength.

Assay [1] concerns the target apurinic/apyrimidinic endonuclease 1 (APE1), endogenous in HeLa cells (human (endogenous in HeLa)) (UniProt P27695). Nature of the assay: proximity ligation; in situ PLA (Duolink) in HeLa cells on coverslips, monoclonal anti-APE1 with an antibody to the partner (polyclonal anti-DROSHA ab85027); untreated or 1 mM H2O2 for 15, 30, 60 min, or MMS.
Assay [2] concerns the target APE1 as immunoprecipitated in the Co-IP experiments (human) (UniProt P27695). Kind of assay: co-IP; Co-IP (Supplementary Fig. 4f); cells, antibodies and conditions not told in the text shown.

For “DEAD-box RNA helicase p68 (DDX5) (from UniProt P17844 1-614)”, in assay [1], the binding result was “no binding”.

Take “nucleophosmin 1 (NPM1) (from UniProt P06748 1-294)”: the binding result in assay [2] and in assay [1] was “binds” throughout.

B1: DGCR8 (DiGeorge critical region 8) (protein, UniProt Q8WYQ5 1-773)
chain: METDESPSPLPCGPAGEAVMESRARPFQALPREQSPPPPLQTSSGAEVMDVGSGGDGQSELPAEDPFNFYGASLLSKGSFSKGRLLIDPNCSGHSPRTARHAPAVRKFSPDLKLLKDVKISVSFTESCRSKDRKVLYTGAERDVRAECGLLLSPVSGDVHACPFGGSVGDGVGIGGESADKKDEENELDQEKRVEYAVLDELEDFTDNLELDEEGAGGFTAKAIVQRDRVDEEALNFPYEDDFDNDVDALLEEGLCAPKKRRTEEKYGGDSDHPSDGETSVQPMMTKIKTVLKSRGRPPTEPLPDGWIMTFHNSGVPVYLHRESRVVTWSRPYFLGTGSIRKHDPPLSSIPCLHYKKMKDNEEREQSSDLTPSGDVSPVKPLSRSAELEFPLDEPDSMGADPGPPDEKDPLGAEAAPGALGQVKAKVEVCKDESVDLEEFRSYLEKRFDFEQVTVKKFRTWAERRQFNREMKRKQAESERPILPANQKLITLSVQDAPTKKEFVINPNGKSEVCILHEYMQRVLKVRPVYNFFECENPSEPFGASVTIDGVTYGSGTASSKKLAKNKAARATLEILIPDFVKQTSEEKPKDSEELEYFNHISIEDSRVYELTSKAGLLSPYQILHECLKRNHGMGDTSIKFEVVPGKNQKSEYVMACGKHTVRGWCKNKRVGKQLASQKILQLLHPHVKNWGSLLRMYGRESSKMVKQETSDKSVIELQQYAKKNKPNLHILSKLQEEMKRLAEEREETRKKPKMSIVASAQPGGEPLCTVDV
Regarding B1, in assay [1], the binding entry is recorded as “no binding”.
